Two molecules from PMC10181192 can be followed below.

Protein sequences, listed by entry. Tags and fused reporters are not part of them. Residues count along the entry.
UniProt Q63155, residues 26-1445: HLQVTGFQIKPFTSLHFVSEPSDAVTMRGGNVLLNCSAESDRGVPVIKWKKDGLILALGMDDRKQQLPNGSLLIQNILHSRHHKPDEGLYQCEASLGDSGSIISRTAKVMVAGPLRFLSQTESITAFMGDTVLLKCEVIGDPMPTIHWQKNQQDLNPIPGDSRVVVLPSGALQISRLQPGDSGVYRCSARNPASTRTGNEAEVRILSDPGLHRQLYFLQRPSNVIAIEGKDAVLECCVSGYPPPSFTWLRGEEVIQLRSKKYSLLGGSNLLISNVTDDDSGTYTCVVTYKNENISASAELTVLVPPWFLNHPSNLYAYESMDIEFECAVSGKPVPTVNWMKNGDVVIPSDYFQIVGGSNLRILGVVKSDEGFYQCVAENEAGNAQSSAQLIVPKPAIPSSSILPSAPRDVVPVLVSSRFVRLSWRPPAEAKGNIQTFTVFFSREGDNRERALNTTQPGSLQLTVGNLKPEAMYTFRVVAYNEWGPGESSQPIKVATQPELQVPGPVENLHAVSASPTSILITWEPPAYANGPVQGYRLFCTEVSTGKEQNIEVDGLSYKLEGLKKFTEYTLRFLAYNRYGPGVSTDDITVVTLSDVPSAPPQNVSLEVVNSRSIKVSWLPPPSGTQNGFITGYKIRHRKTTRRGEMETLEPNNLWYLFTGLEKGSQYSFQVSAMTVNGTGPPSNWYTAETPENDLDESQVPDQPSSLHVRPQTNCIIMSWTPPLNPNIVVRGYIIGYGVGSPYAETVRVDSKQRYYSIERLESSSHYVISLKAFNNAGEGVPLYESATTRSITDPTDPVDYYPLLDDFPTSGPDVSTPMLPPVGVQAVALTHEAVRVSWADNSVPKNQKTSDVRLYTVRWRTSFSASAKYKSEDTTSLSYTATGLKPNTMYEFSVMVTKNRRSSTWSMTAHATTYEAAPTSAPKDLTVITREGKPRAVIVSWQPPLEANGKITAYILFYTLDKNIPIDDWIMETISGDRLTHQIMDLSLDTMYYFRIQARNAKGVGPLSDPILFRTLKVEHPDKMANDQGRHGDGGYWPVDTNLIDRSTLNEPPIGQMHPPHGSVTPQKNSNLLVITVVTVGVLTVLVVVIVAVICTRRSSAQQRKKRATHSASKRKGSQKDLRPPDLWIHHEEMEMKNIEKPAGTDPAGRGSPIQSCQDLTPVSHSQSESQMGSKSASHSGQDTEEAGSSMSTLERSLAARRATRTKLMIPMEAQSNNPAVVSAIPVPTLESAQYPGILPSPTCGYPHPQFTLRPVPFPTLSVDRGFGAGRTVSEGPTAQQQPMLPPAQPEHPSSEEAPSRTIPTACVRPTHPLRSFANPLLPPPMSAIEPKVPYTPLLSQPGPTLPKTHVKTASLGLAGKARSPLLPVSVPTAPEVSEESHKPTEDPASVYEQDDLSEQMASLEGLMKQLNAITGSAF

Experiment [1] has as its target endogenous Dcc (rat (endogenous in commissural neurons)) (UniProt Q63155). Description: co-IP; endogenous proteins; rat commissural neuron lysate in SLB buffer (10 mM tris pH 8, 150 mM NaCl, 0.5% Igepal); IP with anti-DCC antibody or IgG control, protein A/G-agarose, 3 hours; Western blot.
Experiment [2] has the same target. Description: proximity ligation; endogenous proteins in fixed dissociated rat commissural neurons treated with BSA or Netrin-1 (0.1 μg/ml) for 2 or 5 min; antibodies against DCC and ARHGEF7 or GIT1; Duolink in situ PLA kit.

No constants are given. Whether binding was seen depends on the method and setting. Binding seen in cells or lysates may run through a third protein. Some results given as binding are weak or reduced against the parent protein; the word gives no strength.

B1: endogenous Arhgef7 (protein, UniProt O55043 1-646)
chain: MTDNANSQLVVRAKFNFQQTNEDELSFSKGDVIHVTRVEEGGWWEGTHNGRTGWFPSNYVREIKPSEKPVSPKSGTLKSPPKGFDTTAINKSYYNVVLQNILETEHEYSKELQSVLSTYLWPLQTSEKLSSANTSYLMGNLEEISSFQQVLVQSLEECTKSPEAQQRVGGCFLSLMPQMRTLYLAYCANHPSAVSVLTEHSEDLGEFMETKGASSPGILVLTTGLSKPFMRLDKYPTLLKELERHMEDYHPDRQDIQKSMTAFKNLSAQCQEVRKRKELELQILTEPIRSWEGDDIKTLGSVTYMSQVTIQCAGSEEKNERYLLLFPNLLLMLSASPRMSGFIYQGKLPTTGMTITKLEDSENHRNAFEISGSMIERILVSCNNQQDLHEWVEHLQRQTKVTSVSNPTIKPHSVPSHTLPSHPLTPSSKHADSKPVALTPAYHTLPHPSHHGTPHTTISWGPLEPPKTPKPWSLSCLRPAPPLRPSAALCYKEDLSRSPKTMKKLLPKRKPERKPSDEEFAVRKSTAALEEDAQILKVIEAYCTSAKTRQTLNSSSRKESAPQVLLPEEEKIIVEETKSNGQTVIEEKSLVDTVYALKDEVQELRQDNKKMKKSLEEEQRARKDLEKLVRKVLKNMNDPAWDETNL
With B1, the binding result in experiment [1] and in experiment [2] was “binds” throughout.

B2: endogenous Git1 (protein, UniProt Q9Z272 1-770)
chain: MSRKGPRAEVCADCSAPDPGWASISRGVLVCDECCSVHRSLGRHISIVKHLRHSAWPPTLLQMVHTLASNGANSIWEHSLLDPAQVQSGRRKANPQDKVHPIKSEFIRAKYQMLAFVHKLPCRDDDGVTAKDLSKQLHSSVRTGNLETCLRLLSLGAQANFFHPEKGTTPLHVAAKAGQTLQAELLVVYGADPGSPDVNGRTPIDYARQAGHHELAERLVECQYELTDRLAFYLCGRKPDHKNGHYIIPQMADRSRQKCMSQSLDLSELAKAAKKKLQALSNRLFEELAMDVYDEVDRRENDAVWLATQNHSTLVTERSAVPFLPVNPEYSATRNQGRQKLARFNAREFATLIIDILSEAKRRQQGKSLSSPTDNLELSARNQSDLDDQHDYDSVASDEDTDQEPLPSAGATRNNRARSMDSSDLSDGAVTLQEYLELKKALATSEAKVQQLMKVNSSLSDELRKLQREIHKLQAENLQLRQPPGPVPVPSLPSERAEHTLMGPGGSTHRRDRQAFSMYEPGSALKPFGGAPGDELATRLQPFHSTELEDDAIYSVHVPAGLYRIRKGVSASSVTFTPSSPLLSSSQEGSRHASKLSRHGSGAESDYENTQSGEPLLGLEGKRFLELSKEDELHAELESLDGDPDPGLPSTEDVILKTEQVTKNIQELLRAAQEFKHDSFVPCSEKIHLAVTEMASLFPKRPALEPVRSSLRLLNASAYRLQSECRKTVPPEPGAPVDFQLLTQQVIQCAYDIAKAAKQLVTITTREKKQ
Consider B2, for which the binding result in experiment [1] and in experiment [2] was “binds” each time.
